From paper PMC3643979
No constants are given. Whether binding was seen depends on the method and setting. In cells and extracts the contact can be indirect. Some results given as binding are weak or reduced against the parent protein; the word gives no strength. Sequences can lack the tags named with a protein.

Amino acid sequences for entries named in this document (tags omitted). Residues count along the entry.
UniProt Q99835, residues 28-787: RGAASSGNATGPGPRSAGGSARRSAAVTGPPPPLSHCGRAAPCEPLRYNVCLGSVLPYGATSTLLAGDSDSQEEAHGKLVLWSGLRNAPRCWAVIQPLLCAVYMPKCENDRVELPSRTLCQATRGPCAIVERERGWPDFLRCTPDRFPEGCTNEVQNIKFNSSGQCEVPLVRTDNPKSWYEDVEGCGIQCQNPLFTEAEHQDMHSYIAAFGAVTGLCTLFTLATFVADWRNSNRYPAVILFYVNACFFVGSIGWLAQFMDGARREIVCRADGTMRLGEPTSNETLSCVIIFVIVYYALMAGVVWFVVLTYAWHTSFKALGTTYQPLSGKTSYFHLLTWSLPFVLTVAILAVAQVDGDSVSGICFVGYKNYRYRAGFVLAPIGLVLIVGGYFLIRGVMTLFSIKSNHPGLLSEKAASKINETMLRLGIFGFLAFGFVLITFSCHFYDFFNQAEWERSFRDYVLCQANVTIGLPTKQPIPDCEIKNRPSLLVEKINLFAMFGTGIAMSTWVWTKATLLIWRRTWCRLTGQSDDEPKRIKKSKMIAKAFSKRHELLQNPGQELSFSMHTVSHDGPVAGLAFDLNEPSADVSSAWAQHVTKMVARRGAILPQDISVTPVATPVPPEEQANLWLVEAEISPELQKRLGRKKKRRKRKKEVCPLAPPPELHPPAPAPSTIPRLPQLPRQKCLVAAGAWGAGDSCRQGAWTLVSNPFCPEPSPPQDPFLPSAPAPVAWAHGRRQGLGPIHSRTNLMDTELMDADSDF
UniProt Q0VGT2: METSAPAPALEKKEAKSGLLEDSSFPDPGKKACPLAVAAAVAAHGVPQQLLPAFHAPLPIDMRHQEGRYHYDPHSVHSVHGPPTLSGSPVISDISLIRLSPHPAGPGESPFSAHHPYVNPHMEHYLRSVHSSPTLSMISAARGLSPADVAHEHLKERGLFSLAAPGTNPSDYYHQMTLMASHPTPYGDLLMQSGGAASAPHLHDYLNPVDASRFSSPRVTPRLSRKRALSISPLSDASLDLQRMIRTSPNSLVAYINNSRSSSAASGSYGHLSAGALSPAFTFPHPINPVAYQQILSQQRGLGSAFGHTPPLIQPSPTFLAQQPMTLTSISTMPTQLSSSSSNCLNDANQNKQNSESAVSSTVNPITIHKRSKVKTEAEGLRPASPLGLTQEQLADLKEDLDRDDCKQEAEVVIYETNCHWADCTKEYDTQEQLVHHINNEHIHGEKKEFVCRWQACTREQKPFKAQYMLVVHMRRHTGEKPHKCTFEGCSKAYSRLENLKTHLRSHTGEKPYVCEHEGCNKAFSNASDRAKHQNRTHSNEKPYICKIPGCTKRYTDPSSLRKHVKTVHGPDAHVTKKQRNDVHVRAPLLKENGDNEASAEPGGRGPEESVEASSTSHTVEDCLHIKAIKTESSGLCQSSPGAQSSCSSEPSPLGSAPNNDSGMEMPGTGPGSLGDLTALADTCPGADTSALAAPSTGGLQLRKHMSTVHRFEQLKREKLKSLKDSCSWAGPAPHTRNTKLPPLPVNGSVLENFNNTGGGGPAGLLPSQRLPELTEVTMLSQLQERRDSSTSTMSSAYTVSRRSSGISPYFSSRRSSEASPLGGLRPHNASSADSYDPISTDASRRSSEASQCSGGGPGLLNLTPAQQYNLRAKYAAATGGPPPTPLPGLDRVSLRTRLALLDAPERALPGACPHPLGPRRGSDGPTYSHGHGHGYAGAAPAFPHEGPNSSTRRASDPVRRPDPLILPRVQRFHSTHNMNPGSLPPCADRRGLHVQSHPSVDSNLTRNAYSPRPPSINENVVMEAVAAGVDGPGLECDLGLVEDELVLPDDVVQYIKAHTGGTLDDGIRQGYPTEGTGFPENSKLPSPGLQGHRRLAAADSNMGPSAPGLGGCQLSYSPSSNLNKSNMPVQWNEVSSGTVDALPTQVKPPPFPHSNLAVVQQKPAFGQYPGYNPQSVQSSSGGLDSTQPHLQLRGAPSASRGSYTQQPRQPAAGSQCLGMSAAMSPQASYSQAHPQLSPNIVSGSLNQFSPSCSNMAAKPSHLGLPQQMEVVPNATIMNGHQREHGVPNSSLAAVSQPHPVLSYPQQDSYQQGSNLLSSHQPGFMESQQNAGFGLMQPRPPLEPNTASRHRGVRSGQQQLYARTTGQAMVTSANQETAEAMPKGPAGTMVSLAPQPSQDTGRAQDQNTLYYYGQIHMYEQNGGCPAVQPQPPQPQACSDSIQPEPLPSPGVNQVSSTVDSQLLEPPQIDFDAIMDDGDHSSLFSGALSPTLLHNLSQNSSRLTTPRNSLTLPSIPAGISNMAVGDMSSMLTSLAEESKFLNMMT

T1: Flag-tagged Miz1 (UniProt Q13105)
T1 sequence: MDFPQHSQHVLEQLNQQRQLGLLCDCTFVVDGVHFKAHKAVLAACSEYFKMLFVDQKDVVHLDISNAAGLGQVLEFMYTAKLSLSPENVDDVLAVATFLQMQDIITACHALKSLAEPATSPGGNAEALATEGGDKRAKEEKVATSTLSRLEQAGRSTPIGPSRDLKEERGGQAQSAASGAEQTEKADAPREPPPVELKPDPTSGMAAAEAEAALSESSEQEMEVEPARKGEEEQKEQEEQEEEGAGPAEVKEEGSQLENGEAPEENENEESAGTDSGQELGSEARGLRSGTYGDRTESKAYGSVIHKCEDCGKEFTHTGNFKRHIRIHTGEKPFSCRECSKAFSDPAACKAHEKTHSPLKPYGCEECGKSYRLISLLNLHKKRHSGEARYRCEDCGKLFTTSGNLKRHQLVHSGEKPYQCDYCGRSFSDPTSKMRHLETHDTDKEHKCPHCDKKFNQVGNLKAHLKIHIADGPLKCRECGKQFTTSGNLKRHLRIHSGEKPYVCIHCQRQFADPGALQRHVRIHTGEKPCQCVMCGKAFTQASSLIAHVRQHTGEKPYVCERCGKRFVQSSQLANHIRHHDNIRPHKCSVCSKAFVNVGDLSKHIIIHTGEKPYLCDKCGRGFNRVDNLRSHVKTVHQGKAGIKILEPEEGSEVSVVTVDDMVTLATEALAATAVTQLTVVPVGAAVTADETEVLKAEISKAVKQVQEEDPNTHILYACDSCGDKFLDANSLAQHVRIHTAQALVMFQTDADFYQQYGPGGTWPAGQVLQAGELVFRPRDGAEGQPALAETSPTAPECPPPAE

T2: Flag-tagged POZ domain deletion mutant Miz1 (UniProt Q13105)
T2 sequence: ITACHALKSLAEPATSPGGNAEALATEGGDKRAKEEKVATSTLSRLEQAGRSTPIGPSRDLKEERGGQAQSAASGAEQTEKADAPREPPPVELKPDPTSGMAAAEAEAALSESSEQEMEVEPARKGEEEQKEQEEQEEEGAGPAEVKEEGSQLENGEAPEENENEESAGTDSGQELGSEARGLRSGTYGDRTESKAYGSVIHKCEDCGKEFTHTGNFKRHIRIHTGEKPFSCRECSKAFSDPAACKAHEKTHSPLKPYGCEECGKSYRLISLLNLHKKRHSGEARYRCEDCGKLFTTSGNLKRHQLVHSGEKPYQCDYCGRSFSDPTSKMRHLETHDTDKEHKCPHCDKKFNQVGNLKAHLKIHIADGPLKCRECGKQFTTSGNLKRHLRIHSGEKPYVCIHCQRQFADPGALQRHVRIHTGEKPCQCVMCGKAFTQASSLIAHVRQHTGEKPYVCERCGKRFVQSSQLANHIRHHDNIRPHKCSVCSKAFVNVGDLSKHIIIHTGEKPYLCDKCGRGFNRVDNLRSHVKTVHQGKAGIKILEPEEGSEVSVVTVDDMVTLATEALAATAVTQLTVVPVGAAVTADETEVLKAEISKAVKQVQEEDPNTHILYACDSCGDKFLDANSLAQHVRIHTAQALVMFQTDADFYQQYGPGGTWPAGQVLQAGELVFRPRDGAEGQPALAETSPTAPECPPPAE

B1: Myc-tagged Miz1 (full length) (protein, UniProt Q13105 1-803)
chain: T1 sequence
B2: Myc-tagged POZ domain deletion mutant Miz1 (domain or fragment, UniProt Q13105 105-803)
chain: T2 sequence

Assays:
Experiment in all cases: co-IP; HEK293 cells transiently co-transfected; immunoprecipitation with the Flag antibody, detection with the Myc or HA antibody
Flag-tagged Miz1 = biological target: T1, Flag-tagged Miz1
[1] = biological target: T2, Flag-tagged POZ domain deletion mutant Miz1
[2] = biological target: Flag-tagged Smo (full-length Smoothened) (UniProt Q99835)

Row | Molecule | binding (Flag-tagged Miz1) | binding [1] | binding [2]
1 | HA-tagged Gli2 (from UniProt Q0VGT2 1-1544) | binds | no binding | 
2 | B1 |  |  | binds
3 | B2 |  |  | binds
